From article PMC10424871 come the findings set out here.

By UniProt entry, the sequences of proteins in these tests, tags left out. Where a name states a change or a piece, a line headed by the entry shows the natural chain unless it says otherwise. Chains listed by the source or under a name are the forms on record and can include a tag or linker. Residues count along the entry.
FLAG-tagged AMBRA1 (pCMV6-AMBRA1-Myc-DDK) (Q9C0C7-4, form named): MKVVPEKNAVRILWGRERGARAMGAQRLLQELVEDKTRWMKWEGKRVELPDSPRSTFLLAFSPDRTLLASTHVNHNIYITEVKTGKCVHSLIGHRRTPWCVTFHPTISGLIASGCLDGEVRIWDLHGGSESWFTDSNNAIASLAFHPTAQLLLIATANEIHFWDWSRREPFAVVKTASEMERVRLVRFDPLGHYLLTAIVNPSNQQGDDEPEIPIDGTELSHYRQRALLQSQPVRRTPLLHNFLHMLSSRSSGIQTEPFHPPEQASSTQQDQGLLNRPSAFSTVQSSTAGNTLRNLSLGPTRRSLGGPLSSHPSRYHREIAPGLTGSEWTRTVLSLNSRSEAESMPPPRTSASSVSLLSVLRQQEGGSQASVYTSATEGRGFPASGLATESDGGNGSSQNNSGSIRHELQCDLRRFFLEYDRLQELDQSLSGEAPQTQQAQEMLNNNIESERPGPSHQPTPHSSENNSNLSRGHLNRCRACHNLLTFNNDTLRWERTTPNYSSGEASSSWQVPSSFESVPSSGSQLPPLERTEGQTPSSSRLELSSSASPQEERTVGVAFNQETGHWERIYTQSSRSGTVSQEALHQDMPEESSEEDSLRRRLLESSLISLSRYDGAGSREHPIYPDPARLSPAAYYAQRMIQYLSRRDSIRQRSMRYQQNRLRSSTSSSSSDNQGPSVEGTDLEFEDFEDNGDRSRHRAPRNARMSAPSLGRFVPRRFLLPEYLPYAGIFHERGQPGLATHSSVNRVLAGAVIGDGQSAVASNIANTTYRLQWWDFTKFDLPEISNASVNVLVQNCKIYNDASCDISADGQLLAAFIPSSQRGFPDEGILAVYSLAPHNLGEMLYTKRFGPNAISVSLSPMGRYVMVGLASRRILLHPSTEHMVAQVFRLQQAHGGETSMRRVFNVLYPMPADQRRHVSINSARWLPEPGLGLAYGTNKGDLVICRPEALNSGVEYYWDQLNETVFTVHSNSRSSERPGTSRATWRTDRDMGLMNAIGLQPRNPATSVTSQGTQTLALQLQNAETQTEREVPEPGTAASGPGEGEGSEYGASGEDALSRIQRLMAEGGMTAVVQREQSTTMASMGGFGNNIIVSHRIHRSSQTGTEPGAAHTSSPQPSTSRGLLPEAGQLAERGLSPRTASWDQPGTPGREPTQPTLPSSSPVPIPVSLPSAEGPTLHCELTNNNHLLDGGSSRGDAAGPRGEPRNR
UniProt Q7Z6Z7: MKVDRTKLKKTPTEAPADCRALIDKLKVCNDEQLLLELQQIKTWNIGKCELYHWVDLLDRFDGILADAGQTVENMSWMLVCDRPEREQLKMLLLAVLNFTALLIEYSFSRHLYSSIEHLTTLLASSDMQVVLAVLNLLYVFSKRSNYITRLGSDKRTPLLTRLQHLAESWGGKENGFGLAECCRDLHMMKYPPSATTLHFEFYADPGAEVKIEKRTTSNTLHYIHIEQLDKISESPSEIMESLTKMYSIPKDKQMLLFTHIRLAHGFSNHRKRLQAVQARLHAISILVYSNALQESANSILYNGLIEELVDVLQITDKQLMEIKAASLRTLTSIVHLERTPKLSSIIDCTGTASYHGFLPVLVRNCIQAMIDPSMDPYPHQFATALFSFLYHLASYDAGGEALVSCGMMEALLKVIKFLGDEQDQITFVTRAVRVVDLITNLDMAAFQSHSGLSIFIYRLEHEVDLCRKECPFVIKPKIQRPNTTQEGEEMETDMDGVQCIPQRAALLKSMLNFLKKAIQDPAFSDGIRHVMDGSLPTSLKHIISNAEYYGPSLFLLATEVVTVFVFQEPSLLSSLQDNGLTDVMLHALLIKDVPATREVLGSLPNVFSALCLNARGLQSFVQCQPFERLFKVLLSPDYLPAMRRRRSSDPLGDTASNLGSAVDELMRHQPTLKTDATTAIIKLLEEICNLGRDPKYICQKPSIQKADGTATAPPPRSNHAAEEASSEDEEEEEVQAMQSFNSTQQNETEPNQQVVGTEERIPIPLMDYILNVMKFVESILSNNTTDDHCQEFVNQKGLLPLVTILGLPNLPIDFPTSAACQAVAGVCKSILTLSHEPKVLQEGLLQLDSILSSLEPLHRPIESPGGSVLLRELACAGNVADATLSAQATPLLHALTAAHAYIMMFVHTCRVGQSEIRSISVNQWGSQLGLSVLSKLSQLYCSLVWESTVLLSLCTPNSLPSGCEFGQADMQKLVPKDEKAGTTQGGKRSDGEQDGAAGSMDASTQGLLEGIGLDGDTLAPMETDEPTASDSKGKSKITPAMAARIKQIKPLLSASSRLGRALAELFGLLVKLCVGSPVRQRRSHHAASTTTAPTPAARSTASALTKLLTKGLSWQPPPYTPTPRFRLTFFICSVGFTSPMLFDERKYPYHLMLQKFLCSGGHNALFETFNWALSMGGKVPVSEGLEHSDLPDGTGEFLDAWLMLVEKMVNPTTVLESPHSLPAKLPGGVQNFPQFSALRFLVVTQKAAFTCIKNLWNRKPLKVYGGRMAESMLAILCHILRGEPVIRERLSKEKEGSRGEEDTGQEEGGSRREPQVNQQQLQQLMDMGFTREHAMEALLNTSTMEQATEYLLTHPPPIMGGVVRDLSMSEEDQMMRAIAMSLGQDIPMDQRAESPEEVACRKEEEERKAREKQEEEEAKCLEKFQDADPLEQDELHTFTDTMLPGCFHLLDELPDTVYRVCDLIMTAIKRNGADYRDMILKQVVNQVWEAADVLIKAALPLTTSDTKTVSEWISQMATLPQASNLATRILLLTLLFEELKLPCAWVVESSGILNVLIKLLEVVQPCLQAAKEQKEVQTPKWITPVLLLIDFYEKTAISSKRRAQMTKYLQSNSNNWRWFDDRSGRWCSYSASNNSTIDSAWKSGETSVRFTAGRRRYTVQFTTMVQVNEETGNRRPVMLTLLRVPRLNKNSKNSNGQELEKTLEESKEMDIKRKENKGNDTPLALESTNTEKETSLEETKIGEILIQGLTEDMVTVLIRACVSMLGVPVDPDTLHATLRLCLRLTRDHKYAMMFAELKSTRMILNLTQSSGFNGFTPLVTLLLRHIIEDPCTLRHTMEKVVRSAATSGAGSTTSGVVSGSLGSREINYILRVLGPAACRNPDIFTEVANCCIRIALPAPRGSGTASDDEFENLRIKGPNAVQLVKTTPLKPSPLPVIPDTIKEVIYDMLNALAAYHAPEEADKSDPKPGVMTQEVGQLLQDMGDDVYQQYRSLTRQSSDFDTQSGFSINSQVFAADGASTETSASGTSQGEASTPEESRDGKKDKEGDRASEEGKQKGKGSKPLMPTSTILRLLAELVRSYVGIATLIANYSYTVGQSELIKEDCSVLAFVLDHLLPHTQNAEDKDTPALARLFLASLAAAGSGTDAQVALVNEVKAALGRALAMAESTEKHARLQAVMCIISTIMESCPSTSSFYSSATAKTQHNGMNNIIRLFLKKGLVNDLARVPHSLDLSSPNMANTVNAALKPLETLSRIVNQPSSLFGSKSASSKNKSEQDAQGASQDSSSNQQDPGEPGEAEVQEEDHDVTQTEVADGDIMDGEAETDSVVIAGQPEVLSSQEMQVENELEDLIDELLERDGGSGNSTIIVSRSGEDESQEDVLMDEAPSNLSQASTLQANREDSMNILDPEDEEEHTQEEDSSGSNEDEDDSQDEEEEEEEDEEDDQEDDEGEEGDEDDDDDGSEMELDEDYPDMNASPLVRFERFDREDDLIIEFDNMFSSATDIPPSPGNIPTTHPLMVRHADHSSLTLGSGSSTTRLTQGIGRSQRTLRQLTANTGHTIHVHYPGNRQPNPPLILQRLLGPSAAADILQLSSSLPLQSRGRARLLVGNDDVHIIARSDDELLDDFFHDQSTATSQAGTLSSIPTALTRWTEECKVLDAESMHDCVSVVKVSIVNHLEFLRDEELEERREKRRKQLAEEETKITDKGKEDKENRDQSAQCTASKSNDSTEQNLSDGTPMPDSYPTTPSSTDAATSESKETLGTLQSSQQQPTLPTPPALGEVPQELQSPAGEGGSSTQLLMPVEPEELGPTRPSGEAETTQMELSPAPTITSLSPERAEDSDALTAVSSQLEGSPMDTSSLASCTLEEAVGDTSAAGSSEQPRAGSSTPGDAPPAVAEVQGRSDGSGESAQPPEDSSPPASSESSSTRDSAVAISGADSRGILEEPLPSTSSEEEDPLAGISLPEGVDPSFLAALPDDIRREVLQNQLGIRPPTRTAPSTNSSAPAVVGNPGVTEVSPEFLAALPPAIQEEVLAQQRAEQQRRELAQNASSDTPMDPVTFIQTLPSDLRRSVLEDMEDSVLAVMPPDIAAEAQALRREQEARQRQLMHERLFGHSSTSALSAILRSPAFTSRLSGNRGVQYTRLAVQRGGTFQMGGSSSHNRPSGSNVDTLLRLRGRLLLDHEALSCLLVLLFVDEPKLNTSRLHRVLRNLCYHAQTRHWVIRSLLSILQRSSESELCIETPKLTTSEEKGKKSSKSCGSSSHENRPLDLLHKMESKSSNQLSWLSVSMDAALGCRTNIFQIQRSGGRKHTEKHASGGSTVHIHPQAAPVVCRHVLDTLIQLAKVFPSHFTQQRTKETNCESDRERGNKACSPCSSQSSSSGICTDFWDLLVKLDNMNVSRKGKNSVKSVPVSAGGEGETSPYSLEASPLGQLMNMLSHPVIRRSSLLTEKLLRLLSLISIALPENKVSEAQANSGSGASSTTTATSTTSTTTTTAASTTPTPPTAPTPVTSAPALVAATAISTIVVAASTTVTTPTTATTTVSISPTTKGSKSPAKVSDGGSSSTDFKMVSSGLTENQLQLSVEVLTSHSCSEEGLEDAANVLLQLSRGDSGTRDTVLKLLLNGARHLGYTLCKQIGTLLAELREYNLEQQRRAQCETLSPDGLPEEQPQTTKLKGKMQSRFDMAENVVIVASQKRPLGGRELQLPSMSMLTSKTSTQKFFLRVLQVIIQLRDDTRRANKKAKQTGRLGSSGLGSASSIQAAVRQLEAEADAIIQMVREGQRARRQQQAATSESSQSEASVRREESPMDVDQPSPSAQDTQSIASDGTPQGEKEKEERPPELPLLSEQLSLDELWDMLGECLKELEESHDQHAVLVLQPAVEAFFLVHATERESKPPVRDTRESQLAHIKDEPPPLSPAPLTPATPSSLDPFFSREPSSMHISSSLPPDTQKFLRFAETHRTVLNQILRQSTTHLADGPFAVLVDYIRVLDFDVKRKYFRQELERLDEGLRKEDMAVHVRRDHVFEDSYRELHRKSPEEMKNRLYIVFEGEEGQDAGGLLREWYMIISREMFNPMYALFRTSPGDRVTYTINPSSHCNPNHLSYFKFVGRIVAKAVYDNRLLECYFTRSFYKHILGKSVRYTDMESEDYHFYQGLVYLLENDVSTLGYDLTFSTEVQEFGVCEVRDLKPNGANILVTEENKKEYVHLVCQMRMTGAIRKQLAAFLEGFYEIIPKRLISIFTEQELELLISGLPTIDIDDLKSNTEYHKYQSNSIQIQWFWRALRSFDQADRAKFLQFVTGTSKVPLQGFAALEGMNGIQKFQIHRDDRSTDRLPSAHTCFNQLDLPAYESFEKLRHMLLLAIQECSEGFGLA
HA-tagged N-terminally truncated HUWE1 (HUWE1ΔN, amino acid residues 2474-4374): residues 2474-4374 of Q7Z6Z7
UniProt O15205: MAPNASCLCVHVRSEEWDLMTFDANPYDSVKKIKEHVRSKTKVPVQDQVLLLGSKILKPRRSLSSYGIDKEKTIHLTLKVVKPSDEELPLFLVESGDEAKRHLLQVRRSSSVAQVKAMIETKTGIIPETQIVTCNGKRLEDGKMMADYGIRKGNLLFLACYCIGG
HA-FAT10-AV (O15205, form named): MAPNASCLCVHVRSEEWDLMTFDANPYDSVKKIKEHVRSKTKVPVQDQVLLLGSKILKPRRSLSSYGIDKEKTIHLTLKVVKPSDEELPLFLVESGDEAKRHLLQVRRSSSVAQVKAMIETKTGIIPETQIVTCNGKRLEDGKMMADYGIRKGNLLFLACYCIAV

Results are given in words; binding and its absence hold for the method and conditions named. In cells and extracts the contact can be indirect. Some results given as binding are weak or reduced against the parent protein; the word gives no strength.

In assay [1] the target is FLAG-tagged AMBRA1 (pCMV6-AMBRA1-Myc-DDK) (UniProt Q9C0C7). The assay is described as follows: co-IP; HEK293 wild type cells transfected with AMBRA1-FLAG, with or without TNF and IFN-γ for 24 h (induces endogenous FAT10); IP of AMBRA1-FLAG, blot anti-HUWE1 (ARF-BP1).
For assay [2] the target is unchanged. The assay is described as follows: co-IP; HEK293 HUWE1-KO cells transfected with AMBRA1-FLAG and His-HUWE1-HECT or His-HUWE1ΔN, without or with tagless FAT10 or FAT10-AV; IP FLAG, blot anti-HUWE1 (ARF-BP1).
Assay [3] has the same target. The assay is described as follows: co-IP; reverse immunoprecipitation: HEK293 cells transfected with AMBRA1-FLAG and HA-ubiquitin or HA-FAT10; cleared lysate, IP with Anti-FLAG M2 Affinity Gel, blot anti-HA.
Assay [4] concerns the target HA-tagged N-terminally truncated HUWE1 (HUWE1ΔN, amino acid residues 2474-4374) (UniProt Q7Z6Z7). The assay is described as follows: co-IP; HEK293 cells transfected with HA-HUWE1ΔN and FLAG-FAT10, with or without TNF for 24 h; cleared lysate (20 mM Tris/HCl pH 7.6, 50 mM NaCl, 10 mM MgCl2, 1% NP-40), IP with anti-HA agarose at 4°C, blot anti-FLAG; samples analysed under non-reducing and reducing (4% β-ME) conditions.

Assay [5] has as its target HA-FAT10-AV (UniProt O15205). The assay is described as follows: co-IP; HEK293 cells transfected with AMBRA1-FLAG and HA-FAT10, HA-FAT10-AV or HA-ubiquitin; cleared lysate, IP with anti-HA agarose, blot anti-FLAG.
In assay [6] the target is HA-FAT10 (UniProt O15205). The description is as above.

“endogenous HUWE1 (from UniProt Q7Z6Z7 1-4374)”: the binding result in assay [1] was “binds”. Regarding “6His-tagged HUWE1ΔN (amino acid residues 2474-4374) (from UniProt Q7Z6Z7 2474-4374) (domain or fragment)”, in assay [2], the binding result is recorded as “binds”. As for HA-FAT10 (from UniProt O15205 1-165), the binding result in assay [3] was “binds”.

In the case of “6His-3xFLAG-tagged FAT10 (from UniProt O15205 1-165)”, in assay [4], the binding result is reported as “binds”. For the substance “FLAG-tagged AMBRA1 (pCMV6-AMBRA1-Myc-DDK) (from UniProt Q9C0C7-4 1-1208)”, the binding entry in assay [5] and in assay [6] was “binds” throughout. In the case of “6His-tagged HUWE1-HECT (amino acid residues 3993-4374) (from UniProt Q7Z6Z7 3993-4374) (domain or fragment)”, in assay [2], the binding entry was “binds”.
